These are yes or no findings as the source states them, for the method shown. Some binding calls cover weakened binding; strength is not graded here.
How the values were obtained:
[1] = molecular target: human insulin-like growth factor II (IGF-II) (human) (UniProt P01344); assay: ELISA, IgG on coated antigen
[2] = molecular target: human insulin-like growth factor II (IGF-II) (human) (UniProt P01344); assay: told with the BJAB cell assay
[3] = molecular target: human insulin-like growth factor II (IGF-II) (human) (UniProt P01344); assay: told with the phosphorylation assay
[4] = molecular target: human insulin-like growth factor II (IGF-II) (human) (UniProt P01344); assay: ELISA after 9 days in human sera at 37 C
[5] = molecular target: human insulin-like growth factor II (IGF-II) (human) (UniProt P01344); assay: size-exclusion chromatography, Superdex 75
[6] = molecular target: high affinity receptor for IgG on U937 cells (UniProt P12314); assay: flow cytometry on U937 cells, FITC anti-human Fc
[7] = molecular target: BSA (bovine) (UniProt P02769); assay: ELISA, 10 nM IgG on coated BSA, detected with HRP anti-human Fc antibody
[8] = molecular target: human insulin-like growth factor II (IGF-II) (human) (UniProt P01344); assay: ELISA, 10 nM IgG on coated IGF-II, detected with HRP anti-human Fc antibody
[9] = molecular target: human insulin-like growth factor II (IGF-II) (human) (UniProt P01344); assay: ELISA, serial dilutions of IgG on coated IGF-II, detected with HRP anti-human Fc antibody
[10] = molecular target: human insulin-like growth factor II (IGF-II) (human) (UniProt P01344); assay: size-exclusion chromatography (Superdex G75) of IgG1 m610, IgG1 m708.5 and IGF-II mixed 1:1:2
[11] = molecular target: human insulin-like growth factor II (IGF-II) (human) (UniProt P01344); assay: ELISA on coated IGF-II after incubation of the antibody with an equal volume of human serum at 37 C for 0 to 9 days
[12] = molecular target: high affinity receptor for IgG on U937 cells (UniProt P12314); assay: flow cytometry on U937 cells (high affinity receptor for IgG), bound antibody detected with FITC goat F(ab')2 anti-human Fc; concentrations not given
[13] = molecular target: human insulin-like growth factor II (IGF-II) (human) (UniProt P01344); assay: flow cytometry blocking assay: IgG pre-incubated with biotinylated IGF-II, mixture added to MCF-7 cells (IGF-IR and IR), streptavidin-PE; IgG concentration not given
[14] = molecular target: human insulin-like growth factor II (IGF-II) (human) (UniProt P01344); assay: flow cytometry blocking assay: 1 nM biotinylated IGF-II on MCF-7 cells (IGF-IR and IR) in the presence of the antibody, streptavidin-PE; antibody concentration not given

Amino acid sequences for entries named in this document (tags omitted). A change or cut given only in a name is not applied to a line headed by its entry. Residues count along the entry.
UniProt P01344: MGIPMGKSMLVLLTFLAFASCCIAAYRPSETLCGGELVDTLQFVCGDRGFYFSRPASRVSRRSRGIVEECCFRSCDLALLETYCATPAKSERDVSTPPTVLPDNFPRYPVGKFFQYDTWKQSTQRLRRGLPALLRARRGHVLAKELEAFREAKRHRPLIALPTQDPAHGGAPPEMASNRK
UniProt P12314, residues 16-374: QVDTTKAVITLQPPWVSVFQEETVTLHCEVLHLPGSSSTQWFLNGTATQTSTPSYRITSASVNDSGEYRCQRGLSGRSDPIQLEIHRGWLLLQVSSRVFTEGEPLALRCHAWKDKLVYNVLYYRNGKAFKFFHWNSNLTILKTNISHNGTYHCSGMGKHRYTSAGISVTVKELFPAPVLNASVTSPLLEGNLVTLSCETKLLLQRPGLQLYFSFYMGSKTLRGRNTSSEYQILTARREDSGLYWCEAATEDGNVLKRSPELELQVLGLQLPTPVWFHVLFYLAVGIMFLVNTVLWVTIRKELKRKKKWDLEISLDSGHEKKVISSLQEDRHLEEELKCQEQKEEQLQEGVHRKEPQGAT
UniProt P02769, residues 25-607: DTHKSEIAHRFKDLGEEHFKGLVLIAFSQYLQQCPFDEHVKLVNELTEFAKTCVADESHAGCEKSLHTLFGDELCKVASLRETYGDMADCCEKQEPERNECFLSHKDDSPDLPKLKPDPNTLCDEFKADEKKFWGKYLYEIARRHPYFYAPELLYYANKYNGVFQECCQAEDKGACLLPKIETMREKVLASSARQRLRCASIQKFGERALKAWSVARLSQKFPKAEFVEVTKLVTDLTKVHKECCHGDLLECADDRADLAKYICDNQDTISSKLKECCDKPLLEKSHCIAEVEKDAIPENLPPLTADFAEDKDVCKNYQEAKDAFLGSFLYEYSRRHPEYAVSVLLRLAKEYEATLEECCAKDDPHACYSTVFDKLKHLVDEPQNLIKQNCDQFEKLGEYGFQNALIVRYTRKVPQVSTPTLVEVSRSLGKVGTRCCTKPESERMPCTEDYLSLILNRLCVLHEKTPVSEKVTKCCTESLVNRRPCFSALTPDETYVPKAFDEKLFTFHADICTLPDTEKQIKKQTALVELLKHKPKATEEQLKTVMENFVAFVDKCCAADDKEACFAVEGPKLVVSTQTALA

B1: IgG1 m708.5 (antibody, V domains shown)
VH: QVQLQQLGAEVKMPGSSVKVSCKASGGTFSSYAISWVRQAPGQGLEWMGGIIPTLGIVKYAQKFQGRVTITADKSTSTAYMELSSLGSEDTAVYYCAGGPRGYSYNFDNWGQGTLVTVSS
VL: DIQMTQSPSSLSASVGDRVTIVCRASQTISRYVNWYQQKPGKAPKLLIYAASSLQSGVSSRFSGSGSGTEFALTISSLQPEDFATYFCQQTYSPPITFGQGTRLEIKQ
For B1, the binding [1] was “binds”, the binding [2] was “binds” and the binding [3] was “binds”. The binding [4] was “binds”, the binding [5] was “binds” and the binding [6] was “binds”. The binding [7] was “no binding (tested: 10 nM)”, the binding [8] was “binds” and the binding [9] was “binds”. The binding [10] was “binds”, the binding [11] was “binds” and the binding [12] was “binds”. The binding [13] was “binds” and the binding [14] was “binds”.

— patent publication US20160024199A1
